# In patent publication US20240226211A9, “SEAWEED EXTRACTS, ISOLATED COMPOUNDS, AND METHODS OF TREATMENT” (University of Florida Research Foundation, Incorporated, priority 2017, published 2024):
# Columns and labels:
# [1] = In vitro alkylation experiment with excess NAC (or glutathione), LC-MS; settings: excess of NAC (or glutathione), 2 h at room temperature
# [2] = system: gut microbial gene expression; assay: Microbial transcriptomic analysis of large intestine; format: in vivo, mouse; settings: CY and NP pooled
Compound,chemical reactivity towards NAC (mass tags by LC-MS) [1],microbial genes differentially expressed between low and high groups [2],microbial genes differentially expressed versus control mice ([2]; high concentration),microbial genes differentially expressed versus control mice ([2]; low concentration)
cymopol quinone [Compound 5],Various mass tags were observed,,,
"CC(C)=CCC/C(C)=C/Cc1cc(O)c(Br)cc1O [Compound 1, (E)-2-bromo-5-(3,7-dimethylocta-2,6-dien-1-yl)benzene-1,4-diol]",lacked reactivity,"10,107 genes",141 genes,605 genes
